This note sets out measurements from paper PMC10353892.

The chains behind the UniProt entries cited, without tags or fusion partners.
UniProt P23696: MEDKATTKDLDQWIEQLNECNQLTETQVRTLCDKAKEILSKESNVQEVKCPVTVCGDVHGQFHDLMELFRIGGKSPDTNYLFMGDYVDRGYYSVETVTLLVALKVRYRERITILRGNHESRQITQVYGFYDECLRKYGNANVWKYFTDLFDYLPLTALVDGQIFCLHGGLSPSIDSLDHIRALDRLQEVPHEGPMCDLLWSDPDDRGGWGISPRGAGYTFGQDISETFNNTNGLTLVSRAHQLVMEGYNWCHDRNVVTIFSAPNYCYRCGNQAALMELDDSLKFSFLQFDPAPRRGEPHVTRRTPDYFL

What all share (experiment): affinity purification with mass spectrometry; GFP-Trap agarose on lysates of 0-2 h embryos expressing the GFP fusion, GFP alone as control; 20 mM Tris pH 7.5, 150 mM NaCl, 2 mM MgCl2, 0.5% Triton X-100, 4°C; three experiments
One test has as its target T1, Tws-GFP (Drosophila) (UniProt P36872).
T1 sequence: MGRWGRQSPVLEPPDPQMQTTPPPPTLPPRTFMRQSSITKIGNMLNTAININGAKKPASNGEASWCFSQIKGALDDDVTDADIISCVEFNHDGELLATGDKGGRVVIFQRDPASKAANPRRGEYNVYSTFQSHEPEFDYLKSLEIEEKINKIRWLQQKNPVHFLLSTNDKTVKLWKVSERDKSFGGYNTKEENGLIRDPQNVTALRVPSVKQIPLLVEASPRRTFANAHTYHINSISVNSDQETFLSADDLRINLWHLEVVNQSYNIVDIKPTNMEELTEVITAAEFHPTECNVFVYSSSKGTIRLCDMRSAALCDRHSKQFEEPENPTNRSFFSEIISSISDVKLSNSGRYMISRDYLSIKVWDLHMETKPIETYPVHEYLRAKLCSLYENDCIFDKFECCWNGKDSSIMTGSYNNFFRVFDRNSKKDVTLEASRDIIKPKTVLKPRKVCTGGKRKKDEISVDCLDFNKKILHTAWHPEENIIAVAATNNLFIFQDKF

The target of a further test is T2, GFP-Tws (Drosophila) (UniProt P36872).
T2 sequence: T1 sequence

The target of test [1] is T3, GFP-Ote^DD (transgenic embryos) (Drosophila) (UniProt P20240).
T3 sequence: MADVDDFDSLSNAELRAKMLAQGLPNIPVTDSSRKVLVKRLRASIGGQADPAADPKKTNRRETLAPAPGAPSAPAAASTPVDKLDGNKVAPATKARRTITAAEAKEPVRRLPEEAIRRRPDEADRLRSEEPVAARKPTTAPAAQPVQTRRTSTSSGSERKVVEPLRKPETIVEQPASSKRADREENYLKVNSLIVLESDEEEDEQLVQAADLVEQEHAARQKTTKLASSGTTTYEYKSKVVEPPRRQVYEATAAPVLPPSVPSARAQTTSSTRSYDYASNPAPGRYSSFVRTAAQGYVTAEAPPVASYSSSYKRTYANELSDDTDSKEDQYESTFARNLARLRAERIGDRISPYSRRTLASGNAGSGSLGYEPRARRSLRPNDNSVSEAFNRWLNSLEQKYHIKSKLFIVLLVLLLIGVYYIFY

The target in test [2] is T4, GFP-Ote^WT (transgenic embryos) (Drosophila) (UniProt P20240).
T4 sequence: T3 sequence with D50S, D54S

Test [3] addresses T5, GFP-Ote^AA (transgenic embryos) (Drosophila) (UniProt P20240).
T5 sequence: T3 sequence with D50A, D54A

Positions count from the first letter of the chain named. These are yes or no findings as the source states them, for the method shown. Binding seen in cells or lysates may run through a third protein. These calls come from enrichment with a bait or labelling near it, and not all partners need be listed. Sequences can lack the tags named with a protein.

Take “Mts (from UniProt P23696 1-309) (enzyme)”: the binding result with Tws-GFP (Drosophila) and in the test with GFP-Tws (Drosophila) was “binds” each time.

B1: barrier-to-autointegration factor (BAF) (protein, UniProt Q9VLU0 1-90)
chain: MSGTSQKHRNFVAEPMGNKSVTELAGIGETLGGRLKDAGFDMAYTVLGQYLVLKKDEELFKDWMKEVCHASSKQASDCYNCLNDWCEEFL
Take B1: the binding result (with Tws-GFP (Drosophila); in test [1]; in test [2]; in test [3]) was “binds” each time.

B2: Zw10 (protein, UniProt Q9W4X9 1-721)
chain: MEEEAPRFNVLEEAFNGNGNGCANVEATQSAILKVLTRVNRFQMRVRKHIEDNYTEFLPNNTSPDIFLEESGSLNREIHDMLENLGSEGLDALDEANVKMAGNGRQLREILLGLGVSEHVLRIDELFQCVEEAKATKDYLVLLDLVGRLRAFIYGDDSVDGDAQVATPEVRRIFKALECYETIKVKYHVQAYMLQQSLQERFDRLVQLQCKSFPTSRCVTLQVSRDQTQLQDIVQALFQEPYNPARLCEFLLDNCIEPVIMRPVMADYSEEADGGTYVRLSLSYATKEPSSAHVRPNYKQVLENLRLLLHTLAGINCSVSRDQHVFGIIGDHVKDKMLKLLVDECLIPAVPESTEEYQTSTLCEDVAQLEQLLVDSFIINPEQDRALGQFVEKYETYYRNRMYRRVLETAREIIQRDLQDMVLVAPNNHSAEVANDPFLFPRCMISKSAQDFVKLMDRILRQPTDKLGDQEADPIAGVISIMLHTYINEVPKVHRKLLESIPQQAVLFHNNCMFFTHWVAQHANKGIESLAALAKTLQATGQQHFRVQVDYQSSILMGIMQEFEFESTHTLGSGPLKLVRQCLRQLELLKNVWANVLPETVYNATFCELINTFVAELIRRVFTLRDISAQMACELSDLIDVVLQRAPTLFREPNEVVQVLSWLKLQQLKAMLNASLMEITELWGDGVGPLTASYKSDEIKHLIRALFQDTDWRAKAITQIV
As to B2, the binding result in test [2] is “binds”.

B3: Zwlich (protein, UniProt Q9VA00 1-641)
chain: MSASANLANVYAELMRRCGESYTITYGAPPTYLVSMVGAAEAGKKIVLVFKEDRNGAVARLRTTPTRAAPKKEGSADLDLTGSPLKDDCLVDAIADLSIDLQLDHSNPWKLEEEYQRGIPVDKARSIVCSEFLQLAEGLGSVWFLCDGSDLGQTQLLQYEFNPTHFSRGILSYQGVRPAYLVTSQALVRHHGKTPDETLIENSYQVNPHMRLRCSWTSSAALPLLVNLNDCDVALNHTFRVGDCGPLTQDFMNQLRILVYIREDIVSYHTDVKQGVSRDPTYRCGSGIDMDELRESINQTMTDVSGLIGRYSISNAEFDIEDVVQRAKVRQLTDLTDKLWELLKCCHSYKDLKIAFSMLFQCAARCNIVNTPTNKNRLAKIITELANRRLAMPCLSGAEPLELLLEIGLEKLYKDYEFIYTESKMCSTNLLKDDSSGASMDDGSPQNLPQLRKSLHNAVRGDPTPGAGMRKTLLHHHGAVNSRSTKYAGSDDDAGFKNSHFDEHESTERISKLFQIHCTLEHLLMMHIHLNLANVYNDVCSELLKKPPKLVESIDDQLSDVMDIRLSAHYVRDHLDGKDPYSRHITMRSHNKFRELKTTFYFNSENICPPNLAQCFQCDDKEMVKERTYHSWIYHKIRSLK
Consider B3, for which the binding entry in test [2] is recorded as “binds”.

B4: MAN1 (protein, UniProt Q7JRE4 1-650)
chain: MSTESLNSLSDKELHRKLIQSGFPSTPVTETTRAVLIEKLRKHTRADKLKKRSNKYVLYSKEQQESPPFPQYHQYHAPQPPQNYANGLDNNNDLDQTGGSSAYNRSLDESDSSPLQLSASKMYAPPPVVASNYDGDCSPHSLGLNGKYLQPCSMPYAIDTSNNYGKPSGKAKLSDGGVVNRLLSFRDTTIQRKFNYPTGQASRIPLRKERLTRFALSDLKSFIRNPDIRPYVIPRVLISLFLIFLTIITVLYVGKRFEQSPIDKAALKYTLCNPNDMQMISEKVNCIEKDSLRGALDMSEELFRHLNERARLHHCKDANLSPALEIGEFVREMVSNPKTHRGNLHSNLMAAKYLITENPQWSIQVVDSTKHLGQTSHFELSEPNLPLKCIVLKKVTRFFTVIGALLLIVAGFLIVYVAVVIYRVKQKEALLAVDQFQKDIINELIYLSSQSESPEVVINQLQEKFLPAKKRSKLLSSWNKALKQLEKNDSRVLFGMVNRDGKAMRTIAWNRNVDKKDVGLVKKWQSPAFDNSNKIANPPTPCLKIRHMFDSSEVDQANLKQSIVESIIEKVGTRCKICDVQLDVQSCCVYIRCASEEDAGTIHKEINGWWFDKRLISIKFLRLERYLSRFPKPSAEPLYFHTNEAANTHS
B4: the binding result in test [2] is given as “binds”.

B5: PP2A-29B (protein, UniProt P36179 1-591)
chain: MAASDKSVDDSLYPIAVLIDELKNEDVQLRLNSIKKLSTIALALGEERTRSELIPFLTETIYDEDEVLLALADQLGNFTSLVGGPEFAMYLIPPLESLATVEETVVRDKAVESLRTVAAEHSAQDLEIHVVPTLQRLVSGDWFTSRTSACGLFSVCYPRVTQPVKAELRANFRKLCQDETPMVRRAAANKLGEFAKVVETEYLKSDLIPNFVQLAQDDQDSVRLLAVEACVSIAQLLPQDDVEHLVLPTLRQCASDSSWRVRYMVAEKFVDLQKAVGPEITRVDLVPAFQYLLKDAEAEVRAAVATKVKDFCANLDKVNQVQIILSSILPYVRDLVSDPNPHVKSALASVIMGLSPMLGAYQTVEQLLPLFLIQLKDECPEVRLNIISNLDCVNDVIGIQQLSQSLLPAIVELAEDSKWRVRLAIIEYMPALAGQLGQEFFDQKLRGLCMGWLNDHVYAIREAATLNMKKLVEQFGAPWAEQAIIPMILVMSRNKNYLHRMTCLFCLNVLAEVCGTDITTKLLLPTVLLLAADPVANVRFNVAKTLQKISPFLEASVIDAQVKPTLDKLNTDTDVDVKHFAAQAIAGIAAA
In the case of B5, the binding result in the test with GFP-Tws (Drosophila) was “binds”.
